# Source: the supplement of paper PMC4604168 (melanoma cell lines)
# Some of the results follow. Repeats are few or missing, and single values can be far off.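 The apoptosis fraction was the count of cleaved-PARP antibody-stained nuclei relative to all DNA-stained nuclei, imaged in 1,536-well plates. Screening doses were set so most cells survived, and baseline and induced cleaved-PARP levels vary greatly across cell lines.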
# System: G361
# Test: cleaved PARP positive nuclei fraction relative to DMSO control; melanoma cells; higher = more apoptosis
# Conditions: library dose: low library concentration; 72 h
row,SMILES,cleaved PARP positive nuclei fraction
1,"CCc1ccc(CCOc2ccc(CC3SC(=O)NC3=O)cc2)nc1 (stereo unspecified) [pioglitazone] + CCCCCCCCCCCC1=C(O)C(=O)C=C(O)C1=O [Embelin] (first compound 2 µM, partner dose 1.2 µM)",57.6%
2,"CN(C)S(=O)(=O)c1ccc2c(c1)/C(=C/c1cc3c([nH]1)CCCC3)C(=O)N2 + c1cc(-c2cnn3cc(-c4ccc(OCCN5CCCCC5)cc4)cnc23)ccn1 [Dorsomorphin] (first compound 0.4 µM, partner dose 0.4 µM)",198%
3,"O=C(Nc1ccccc1)c1cc([N+](=O)[O-])ccc1Cl + O=c1cc(-c2cccc3c2Sc2ccccc2S3)oc(N2CCOCC2)c1 [KU55933] (first compound 2 µM, partner dose 1 µM)",82.5%
4,"COc1cc2ncnc(Nc3ccc(Oc4ccccc4)cc3)c2cc1OC + O=C(O)C(=O)Nc1sc2c(c1C(=O)O)CCNC2 [TCS401] (first compound 2 µM, partner dose 1.66667 µM)",87.1%
5,"COc1ccc(-c2ccc3c(N4CCOCC4)nc(N4C[C@@H](C)O[C@@H](C)C4)nc3n2)cc1CO + Oc1nc(-c2ccc(C(F)(F)F)cc2)nc2c1CSCC2 [XAV939] (first compound 0.02 µM, partner dose 2 µM)",132%
6,"CN(NC(=O)CC(=O)NN(C)C(=S)c1ccccc1)C(=S)c1ccccc1 + CCc1ccc(CCOc2ccc(CC3SC(=O)NC3=O)cc2)nc1 [pioglitazone] (first compound 0.006 µM, partner dose 2 µM)",73.5%
7,"CCc1ccc(CCOc2ccc(CC3SC(=O)NC3=O)cc2)nc1 (stereo unspecified) [pioglitazone] + Cc1cc([N+](=O)[O-])ccc1NS(=O)(=O)c1cc(Cl)ccc1Cl [FH535] (first compound 2 µM, partner dose 1 µM)",145%
8,"CCN(CC)CCCCNc1ncc2cc(-c3cc(OC)cc(OC)c3)c(NC(=O)NC(C)(C)C)nc2n1 + O=c1cc(-c2cccc3c2Sc2ccccc2S3)oc(N2CCOCC2)c1 [KU55933] (first compound 0.1 µM, partner dose 1 µM)",128%
9,"COc1ccc(COc2ccc(Cc3cnc(N)nc3N)cc2OC)cc1 + O=C1NC(=O)/C(=C/c2ccc(-c3ccc(F)cc3O)o2)S1 [AS252424] (first compound 1 µM, partner dose 1 µM)",157%
10,"Oc1cc(-c2nc(-c3ccccc3)[nH]c2-c2ccncc2)ccc1Cl + Cn1cc(/C=C2\C(=O)Nc3cccnc32)c2ccccc21 [GW441756] (first compound 0.2 µM, partner dose 0.4 µM)",129%
11,"NCC(=O)Nc1ccc(-n2nc(C(F)(F)F)cc2-c2ccc3c(ccc4ccccc43)c2)cc1 + Oc1cc(-c2nc(-c3ccccc3)[nH]c2-c2ccncc2)ccc1Cl [L779450] (first compound 1 µM, partner dose 0.2 µM)",166%
12,"O=S(=O)(c1ccccc1)N(CC(F)(F)F)c1ccc(C(O)(C(F)(F)F)C(F)(F)F)cc1 + CC(C)CCN1c2nc(Nc3cc(F)c(O)c(F)c3)ncc2N(C)C(=O)C1C [BID1870] (first compound 1.4 µM, partner dose 0.2 µM)",72.4%
13,"Cn1cc(/C=C2\C(=O)Nc3cccnc32)c2ccccc21 + CC(C)CCN1c2nc(Nc3cc(F)c(O)c(F)c3)ncc2N(C)C(=O)C1C [BID1870] (first compound 0.4 µM, partner dose 0.2 µM)",58.9%
14,"O=C1NC(=O)/C(=C/c2ccc(-c3ccc(F)cc3O)o2)S1 + COc1cc(N2CCC(N3CCN(C)CC3)CC2)ccc1Nc1ncc(Cl)c(Nc2ccccc2S(=O)(=O)C(C)C)n1 [NVP-TAE684] (first compound 1 µM, partner dose 0.08 µM)",90.1%
15,"N#Cc1c(O)c2c(-c3ccc(-c4ccccc4O)cc3)csc2[nH]c1=O + CCN(CC)CCCCNc1ncc2cc(-c3cc(OC)cc(OC)c3)c(NC(=O)NC(C)(C)C)nc2n1 [PD173074] (first compound 2 µM, partner dose 0.1 µM)",165%
16,"CN(C)S(=O)(=O)c1ccc2c(c1)/C(=C/c1cc3c([nH]1)CCCC3)C(=O)N2 + COc1ccc2c(c1)CCC1C2CCC2(C)C(NCCCCCCN3C(=O)C=CC3=O)CCC12 [U73122] (first compound 0.4 µM, partner dose 0.4 µM)",150%

# A second format for part of the listing above.
row | SMILES | cleaved PARP positive nuclei fraction
15 | N#Cc1c(O)c2c(-c3ccc(-c4ccccc4O)cc3)csc2[nH]c1=O + CCN(CC)CCCCNc1ncc2cc(-c3cc(OC)cc(OC)c3)c(NC(=O)NC(C)(C)C)nc2n1 [PD173074] (first compound 2 µM, partner dose 0.1 µM) | 165%
16 | CN(C)S(=O)(=O)c1ccc2c(c1)/C(=C/c1cc3c([nH]1)CCCC3)C(=O)N2 + COc1ccc2c(c1)CCC1C2CCC2(C)C(NCCCCCCN3C(=O)C=CC3=O)CCC12 [U73122] (first compound 0.4 µM, partner dose 0.4 µM) | 150%
